Measured values as given in paper PMC5784528.
No constants are given. Whether binding was seen depends on the method and setting. In cells and extracts the contact can be indirect. A result given as binding can be weak or reduced; the word gives no strength. Tags and fused reporters may be left off the sequences shown.

What was measured:
[1] = target: T1, flag-tagged DUSP6 truncation mutant 150-205aa (linker region) (human) (UniProt Q16828); experiment: co-IP; flag-tagged DUSP6 (full length or truncation mutant) co-expressed with HA-tagged PKN2 (0, 3 and 6 μg) in 293 T cells; immunoprecipitated by anti-flag antibody, 4 °C overnight, protein A/G agarose beads; western blot
T1 sequence: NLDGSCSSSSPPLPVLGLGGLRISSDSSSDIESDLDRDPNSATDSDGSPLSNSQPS

[2] = target: T2, flag-tagged full-length wild-type DUSP6 (DUSP6-WT-flag) (human) (UniProt Q16828); experiment: as above
T2 sequence: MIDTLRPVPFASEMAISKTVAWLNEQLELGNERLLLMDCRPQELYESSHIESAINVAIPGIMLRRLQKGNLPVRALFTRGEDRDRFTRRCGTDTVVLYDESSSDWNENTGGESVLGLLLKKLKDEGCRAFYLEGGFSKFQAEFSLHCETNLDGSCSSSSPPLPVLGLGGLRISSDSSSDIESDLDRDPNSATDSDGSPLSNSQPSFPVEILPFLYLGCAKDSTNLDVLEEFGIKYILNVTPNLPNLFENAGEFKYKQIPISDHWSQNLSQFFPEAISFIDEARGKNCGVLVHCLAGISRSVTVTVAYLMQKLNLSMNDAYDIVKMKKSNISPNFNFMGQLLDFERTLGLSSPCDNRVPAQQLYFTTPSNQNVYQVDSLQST

**Q.** With “HA-tagged wild-type PKN2 (PKN2-WT-HA) (human)” as the substance, how does the binding [1] read?
**A.** Its binding is “binds”.

**Q.** And the binding [2]?
**A.** The binding was “binds”.
